Laboratory results published in PubChem BioAssay AID540276 (National Center for Advancing Translational Sciences (NCATS), 2011).
“And” between values parts separate entries of the source, which are not always exact repeats. Identical values can stand only once. Screen size: about 300,000 compounds; about 5,400 (1.8%) were called active. Inconclusive results, whose numbers are uncertain, are shown with a selection of clear calls. Calls come from the whole dose curve; tested in HEK293 cells. Where the call is inconclusive, the potency comes from a doubtful curve fit.

test: qHTS for inhibitors of binding or entry into cells for Marburg Virus; conditions: Marburg virus pseudotyped entry inhibition, cell reporter; activity change, negative = inhibition: at 37.8 µM (top of the series) unless noted
% is set by controls: 0 for no effect and ±100 for the full control effect; potency is the fitted concentration of half-maximal effect.

Row | Structure (SMILES) | activity change, negative = inhibition | Potency
1 | COc1ccccc1N1C(=O)CC(Sc2nc(C)cc(C)n2)C1=O (centres undefined) | inactive: 22.7% | –
2 | CCCN(CCC)C(=O)CSc1nnc2cc(C)c3cc(C)cc(C)c3n12 | inactive: 13.6% [at 46.1 µM] | –
3 | Clc1ccc2oc(-c3ccccn3)nc2c1 | inactive: -23.6% | –
4 | CCN(CC)c1ccc(NC(=O)CSc2nnc(C)c(=O)[nH]2)cc1 | – | inconclusive: 31.6 µM [activator, single point]
5 | CCN(CC)c1ccc(NC(=O)c2ccccc2F)cc1S(=O)(=O)Nc1ccccc1OC | – | inconclusive: 29.1 µM [inhibitor, single point]
6 | CSc1nc2ccc(Cl)cc2[nH]1 | inactive: -3.86% | –
7 | Cn1c(=O)[nH]c(=O)c2[nH]c(N(Cc3ccccc3)Cc3ccccc3)nc21 | inactive: -3.37% [at 46.1 µM] | –
8 | Cc1cc(C(=O)CN2CCC(C)CC2)c(C)n1-c1ccc(F)cc1 | – | inconclusive: 29.1 µM [inhibitor, single point]
9 | COc1cc(N=C2C(=O)N3CCCc4cccc2c43)cc(OC)c1 | – | inconclusive: 35.5 µM [activator, single point]
10 | Cc1ccccc1CSc1nnc(-c2cnccn2)n1C | – | inconclusive: 10 µM [activator, single point]
11 | CCCCc1ccc(-n2nc3cc(C)c(NC(=O)Cc4ccccc4)cc3n2)cc1 | inactive: 13.6% [at 46.1 µM] | –
12 | COc1ccc(OCCSc2ncc(CO)n2C)cc1 | – | inconclusive: 35.5 µM [activator, single point]
13 | N#C/C(=C\c1ccc([N+](=O)[O-])cc1)C(=O)Nc1ccccc1O | – | inconclusive: 3.98 µM [activator, partial curve]
14 | O=C(CSc1nc(CCC2CCCC2)nc2ccccc12)NCc1ccc2c(c1)OCO2 | – | active: 12.6 µM
15 | c1ccc(COc2ccc(OCCCCN3CCCCC3)cc2)cc1 | – | inconclusive: 2.82 µM [inhibitor, single point]
16 | O=C(NCCNCc1ccccc1)c1ccco1 | inactive: -1.93% [at 46.1 µM] | –
17 | O=C(Nc1cc(C(F)(F)F)cc(C(F)(F)F)c1)Nc1cnn(-c2ccc([N+](=O)[O-])cc2)c1C(F)(F)F | – | inconclusive: 0.316 µM [inhibitor, full curve, poor fit]
18 | O=S(=O)(NC1=NCCC1)c1cccc(NC(=S)Nc2ccc(OC(F)F)cc2)c1 | inactive: 2.03% | –
19 | C/C(=N\NC(=O)c1nn(C)cc1Br)c1ccc(NC(=O)c2ccncc2)cc1 | – | inconclusive: 12.6 µM [activator, single point]
20 | Cc1cccc(OCc2ccc(-c3nc(C#N)c(NCCN(C)C)o3)o2)c1 | – | inconclusive: 22.4 µM [inhibitor, single point]
21 | Cc1ccc(OCc2nc(-c3cccnc3)no2)cc1C | – | inconclusive: 35.5 µM [inhibitor, single point]
22 | O=S(=O)(NC1CCCCC1Oc1ccccc1)c1ccccc1 (centres undefined) | – | inconclusive: 5.62 µM [activator, single point]
23 | COc1ccccc1CNCc1ccc(OC)c2ccccc12 | – | inconclusive: 35.5 µM [inhibitor, single point]

Row | Structure (SMILES) | activity change, negative = inhibition | Potency
24 | Cc1ccc(NC(=O)CS(=O)(=O)c2nc(-c3ccc(C)cc3)cn2-c2ccc(C)cc2)cc1 | – | inconclusive: 15.8 µM [inhibitor, single point]
25 | Cc1onc(-c2c(Cl)cccc2Cl)c1-c1nnc(-c2ccc(Cl)cc2)o1 | – | inconclusive: 31.6 µM [inhibitor, partial curve, poor fit]
26 | CCC(=O)Oc1ccc(C(=O)Nc2c[nH]c(=O)[nH]c2=O)cc1 | – | inconclusive: 0.112 µM [activator, full curve, poor fit]
27 | Cc1ccc(-c2noc(CSc3ccccc3)n2)cc1 | – | inconclusive: 1.83 µM [activator, partial curve, poor fit]
28 | CCOc1ccc(OCCOC(=O)CN2C(=O)NC3(CCCC3)C2=O)cc1 | inactive: 18.4% | –
29 | CC(=O)Nc1ccc(-c2csc(Nc3ccc(Cl)cn3)n2)cc1 | – | inconclusive: 31.6 µM [inhibitor, single point]
30 | CC(C)CN=Cc1c(O)c([N+](=O)[O-])cc2oc3c(c12)CCCC3 | – | inconclusive: 5.62 µM [activator, single point]
31 | CC(C)NC(=O)CSc1nnc(CNC(=O)OC(C)(C)C)n1C | – | inconclusive: 6.31 µM [inhibitor, full curve]
32 | O=S(=O)(c1ccc(F)cc1)N1CCN(C(=S)NCc2ccccc2)CC1 | inactive: -10.8% [at 46.1 µM] | –
33 | CC1=C(C(=O)Nc2ccccc2C)C(c2cccs2)NC(=S)N1 (centres undefined) | – | inconclusive: 12.6 µM [activator, partial curve, poor fit]
34 | N#CC(=C(c1ccccc1)c1ccccc1)c1ccccc1 | inactive: -2.29% | –
35 | CC(C)(C)NC(=O)CSc1nc(-c2ccccc2)c(-c2ccccc2)[nH]1 | – | inconclusive: 16.4 µM [inhibitor, partial curve, poor fit]
36 | Cc1nc(-n2nc(C)c(Cc3ccccc3Cl)c2C)sc1C(=O)N1CCCCC1C (centres undefined) | inactive: 4.53% [at 46.1 µM] | –
37 | Cc1ccc(NC(=O)c2ncn(-c3ccccc3)n2)cc1Cl | – | inconclusive: 2.51 µM [activator, partial curve, poor fit]
38 | Nc1cnn(C2OC(CO)C(O)C2O)c(=O)n1 (centres undefined) | – | inconclusive: 1 µM [inhibitor, full curve, poor fit]
39 | Cn1/c(=N\NC(=O)c2ccccc2Cl)sc2ccccc21 | – | inconclusive: 6.31 µM [activator, single point]
40 | Cc1cc(=O)oc(C)c1C(=O)OCC(=O)c1ccc2ccccc2c1 | – | inconclusive: 29.1 µM [inhibitor, single point]
41 | COc1ccc(Cl)cc1C(=O)CSc1nnnn1C1CCCC1 | inactive: -18.1% | –
42 | CCCc1nnc(NC(=O)CCC(=O)N2CCN(S(=O)(=O)c3ccc(OC)cc3)CC2)s1 | inactive: 1% [at 46.1 µM] | –
43 | CC(C)(OC(=O)NC(=O)C(F)(F)F)C(C)(C)OC(=O)NC(=O)C(F)(F)F | – | inconclusive: 10 µM [activator, partial curve]
44 | OCCOCCNc1ncnc2c1cnn2-c1ccc(Cl)cc1 | – | inactive and inconclusive: 17.8 µM [inhibitor, single point]
45 | COc1ccc(C(=O)OCC(=O)c2ccc[nH]2)c(OC)c1 | – | inconclusive: 35.5 µM [activator, partial curve, poor fit]
46 | O=C(Nc1cccc([N+](=O)[O-])c1)c1ccc2ccccc2c1O | – | inconclusive: 8.91 µM [inhibitor, partial curve, poor fit]

Row | Structure (SMILES) | activity change, negative = inhibition | Potency
47 | COc1ccccc1C(=O)NCc1ccc(-c2nc3ccccc3s2)cc1 | inactive: -11.1% | –
48 | Cc1cc(C)c(NC(=O)CS(=O)CC(=O)Nc2ccc(-n3cnnn3)c(C)c2)c(C)c1 (centres undefined) | – | inconclusive: 39.8 µM [inhibitor, partial curve, poor fit]
49 | CC1CCCCN1S(=O)(=O)c1ccc(C(=O)Nc2ccccc2-c2nc3ccccc3s2)cc1 (centres undefined) | – | inconclusive: 1.84 µM [activator, full curve, poor fit]
50 | Oc1ccc(/C=N/Nc2cc(N3CCCC3)nc(N3CCCC3)n2)cc1O | – | inconclusive: 9.2 µM [inhibitor, partial curve]
51 | Cc1ccc2[nH]c(=O)c(CN(CCCO)S(=O)(=O)c3c(C)ccc4nsnc34)cc2c1 | inactive: -1.55% | –
52 | CC1CCC/C(=C(\C#N)c2nc(-c3cc4ccccc4oc3=O)cs2)C1 (centres undefined) | – | inconclusive: 1.12 µM [activator, single point]
53 | CCN(CC)c1ccc(-c2nn3c(-c4ccccc4OC)nnc3s2)cc1 | – | inconclusive: 1.26 µM [inhibitor, partial curve, poor fit]
54 | COc1ccc(N=C2NC(=O)/C(=C/c3ccc(O)c(OC)c3)S2)cc1 | – | inconclusive: 0.184 µM [activator, single point]
55 | O=C(O)c1ccc(-n2c(O)c(/C=C3\C=Nc4ccccc43)c(=O)[nH]c2=O)cc1 | inactive: -15.2% [at 46.1 µM] | –
56 | COc1ccc(CNC(=O)C(c2ccncc2)N(C(=O)Cc2cccs2)c2cccc(C)c2)cc1 (centres undefined) | – | inconclusive: 23.1 µM [inhibitor, single point]
57 | COc1ccc2c(c1)-c1c(ssc1=S)C(C)(C)N2S(=O)(=O)c1ccc(C)cc1 | – | inconclusive: 7.08 µM [inhibitor, partial curve, poor fit]
58 | COCCCNC(=O)c1c(NC(=O)c2nc(S(C)(=O)=O)ncc2Cl)sc2c1CCCC2 | inactive: 13.7% [at 46.1 µM] | –
59 | O=c1[nH]c(Nc2ccc(F)cc2)cc2ccccc12 | – | inactive
60 | COC(=O)[C@@H](NC(=O)c1ccc2c(c1)S(=O)(=O)c1ccccc1C2=O)C(C)C | inactive: -25.8% [at 46.1 µM] | –
61 | O=C(Nc1ccc2ccccc2c1)c1cc(F)c(F)cc1Cl | – | active: 7.08 µM
62 | O=C(O)CC(NC(=O)C1CCCCC1)c1cc([N+](=O)[O-])ccc1Cl (centres undefined) | – | inconclusive: 4.47 µM [inhibitor, single point]
63 | CN1CCN(CC(=O)Nc2c(C(=O)C3CC3)oc3ccccc23)CC1 | – | inconclusive: 29.1 µM [inhibitor, single point]
64 | Cc1cc(C)cc(NC(=S)N(Cc2ccc(Br)cc2)Cc2ccc(C(=O)O)cc2)c1 | – | inconclusive: 12.6 µM [inhibitor, partial curve, poor fit]
65 | COc1ccc(N2CCN(C(=O)c3cn(C4CCCC4)c(=O)c4c3c3ccccc3n4C)CC2)cc1 | – | active: 8.91 µM
66 | COc1ccc(CNC(=O)C2CCN(c3nc(-c4ccccc4)nc4c3CCC4)CC2)cc1 | – | inconclusive: 12.6 µM [inhibitor, single point]
67 | CCOc1ccccc1NC(=O)CN1C(=O)CC(c2ccco2)Sc2ccccc21 (centres undefined) | – | inconclusive: 35.5 µM [inhibitor, single point]
68 | Cc1ccc(C)c(S(=O)(=O)NCc2cccnc2)c1 | inactive: 15.6% | –
69 | Cc1cc(NC(=O)CCCn2c(C)c3cnn(-c4ccccc4)c(=O)c3c2C)ccc1Br | inactive: -14.1% [at 46.1 µM] | –
